Test results reported in patent US7094753B2 (Societe de Conseils de Recherches et d'Applications …, priority 2001, dated 2006).

Assay: general procedure: Fmoc solid-phase peptide synthesis; Rink Amide MBHA; TBTU/HOBt/DIEA
Details: whole synthesis, scale 2.0 grams of Rink Amide MBHA resin (0.65 mmole/g)

With “D-Phe-c(Cys-Tyr(I)-D-Trp-Lys-Val-Cys)-Thr-NH2” the “final HPLC purity” value (analytical HPLC and mass spectrometry) was >99% and the isolated mass was 589 mg.
